These are yes or no findings as the source states them, for the method shown. Some entries that bind do so weakly or less than the wild type.

Chains of the proteins cited; added tags and fusions are not shown. Lines headed by an entry give the natural chain unless they say otherwise; changes in a name come on top. A line that says so, or that is headed by a name, gives the form on record, which may keep a tag or linker.
UniProt P19634: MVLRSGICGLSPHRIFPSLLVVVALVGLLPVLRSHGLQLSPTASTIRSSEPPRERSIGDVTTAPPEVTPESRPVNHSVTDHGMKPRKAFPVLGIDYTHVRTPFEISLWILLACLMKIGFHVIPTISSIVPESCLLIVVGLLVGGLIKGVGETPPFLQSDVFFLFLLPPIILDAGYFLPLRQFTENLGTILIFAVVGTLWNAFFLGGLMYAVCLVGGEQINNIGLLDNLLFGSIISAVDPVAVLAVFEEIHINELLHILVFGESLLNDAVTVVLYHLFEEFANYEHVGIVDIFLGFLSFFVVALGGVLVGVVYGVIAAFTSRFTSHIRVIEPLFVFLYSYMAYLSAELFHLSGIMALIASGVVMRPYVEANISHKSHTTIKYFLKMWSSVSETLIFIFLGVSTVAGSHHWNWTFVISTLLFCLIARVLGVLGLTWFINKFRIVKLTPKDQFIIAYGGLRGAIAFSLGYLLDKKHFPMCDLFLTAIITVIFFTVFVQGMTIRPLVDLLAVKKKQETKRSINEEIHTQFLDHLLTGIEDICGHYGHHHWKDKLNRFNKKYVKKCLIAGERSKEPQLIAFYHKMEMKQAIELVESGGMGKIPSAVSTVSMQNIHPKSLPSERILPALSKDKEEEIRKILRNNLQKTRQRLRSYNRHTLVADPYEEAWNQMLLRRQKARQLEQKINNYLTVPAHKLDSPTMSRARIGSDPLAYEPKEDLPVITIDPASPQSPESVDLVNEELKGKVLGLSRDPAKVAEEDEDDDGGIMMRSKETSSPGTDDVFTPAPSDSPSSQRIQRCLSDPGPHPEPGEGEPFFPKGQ
S-tagged NHE1 V503-R698 (C561A) (subdomains A-C of the NHE1 C-terminal tail) (P19634, form named): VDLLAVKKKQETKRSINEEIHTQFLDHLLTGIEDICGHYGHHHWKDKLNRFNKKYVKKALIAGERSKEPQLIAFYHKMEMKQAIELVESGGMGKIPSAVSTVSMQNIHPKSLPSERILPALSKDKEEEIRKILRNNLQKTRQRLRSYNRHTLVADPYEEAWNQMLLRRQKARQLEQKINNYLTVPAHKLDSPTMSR

In test [1] the target is wild-type human Na+/H+ exchanger 1 (NHE1) (human) (UniProt P19634). Briefly: Western blot for dimers in cell lysates; lysates of AP-1 cells stably expressing wt- or 4G-NHE1; details only in Supplementary Fig. S11.
The target of test [2] is full length NHE1 with the LID4G-mutations (I574G, F576G, I586G, L588G) (human) (UniProt P19634). The description is as above.
The target of test [3] is T1, H6-CHP1 (calcineurin homologous protein 1) (UniProt Q99653).
T1 sequence: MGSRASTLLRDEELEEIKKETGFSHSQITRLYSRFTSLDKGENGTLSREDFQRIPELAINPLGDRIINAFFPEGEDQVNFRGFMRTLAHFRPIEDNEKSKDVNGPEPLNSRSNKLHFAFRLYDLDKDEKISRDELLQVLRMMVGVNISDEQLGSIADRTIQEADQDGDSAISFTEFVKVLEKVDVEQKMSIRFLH
Put plainly: co-purification (Ni-NTA + SEC); H6-CHP1 co-expressed with S-tagged NHE1 in E. coli; lysis in 6 M GdnHCl, capture on Ni-NTA, refolding on the column, elution with 500 mM imidazole; Superdex 200 in 20 mM TrisHCl pH 8.0, 150 mM NaCl, 0.1 mM CaCl2.

Turning to “wild-type human Na+/H+ exchanger 1 (NHE1) (from UniProt P19634 1-815)”, the binding result in test [1] is on record as “binds”.

As to “full length NHE1 with the LID4G-mutations (I574G, F576G, I586G, L588G) (from UniProt P19634 1-815)”, in test [2], the binding entry is “binds”. Take “S-tagged NHE1 V503-R698 (C561A) (subdomains A-C of the NHE1 C-terminal tail) (from UniProt P19634 503-698) (domain or fragment)”: the binding entry in test [3] is “binds”.

Source of the values: publication PMC7713384.
